# Patent US20080249077A1, “17.Beta.-Fluoromethoxycarbonyl-Androst-4-En-3-One Compounds With a 17.Alpha.-Carbonate Sustituent” (priority 2005, published 2008)
# Some of these results come from one statement about several compounds together.
# Biological target: T1, glucocorticoid receptor (Homo sapiens, UniProt P04150)
# T1 construct: A549 cells stably transfected with a reporter gene; endogenous in cells; host or cells: A549 cells
# T1 sequence (P04150 1-777): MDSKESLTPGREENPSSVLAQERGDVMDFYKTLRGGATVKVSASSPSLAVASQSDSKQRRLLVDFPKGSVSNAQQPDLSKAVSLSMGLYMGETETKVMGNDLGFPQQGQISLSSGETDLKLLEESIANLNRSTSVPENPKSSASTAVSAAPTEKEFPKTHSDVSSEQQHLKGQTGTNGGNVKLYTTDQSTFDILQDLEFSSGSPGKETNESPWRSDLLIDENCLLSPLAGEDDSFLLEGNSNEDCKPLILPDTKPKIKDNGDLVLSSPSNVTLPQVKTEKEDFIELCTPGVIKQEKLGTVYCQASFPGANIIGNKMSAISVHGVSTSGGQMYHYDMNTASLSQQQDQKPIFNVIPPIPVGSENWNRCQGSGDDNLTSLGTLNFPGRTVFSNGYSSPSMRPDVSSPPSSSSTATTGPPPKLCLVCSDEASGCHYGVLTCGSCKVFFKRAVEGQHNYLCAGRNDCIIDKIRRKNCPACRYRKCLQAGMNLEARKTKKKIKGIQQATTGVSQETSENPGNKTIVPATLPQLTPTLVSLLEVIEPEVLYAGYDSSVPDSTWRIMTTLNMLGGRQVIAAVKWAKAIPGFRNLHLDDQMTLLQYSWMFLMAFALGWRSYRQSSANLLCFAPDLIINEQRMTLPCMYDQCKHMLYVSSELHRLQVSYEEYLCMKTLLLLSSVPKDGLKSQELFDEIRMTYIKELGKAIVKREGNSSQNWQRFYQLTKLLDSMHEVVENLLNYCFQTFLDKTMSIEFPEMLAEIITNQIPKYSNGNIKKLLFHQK
# Experiment: Assay for transrepression activity of the glucocorticoid agonists (NF-κB responsive ELAM promoter-sPAP reporter, TNF-stimulated A549 cells)
# Format: cell-based
# Settings: compound 1 hour at 37° C., then TNF 10 ng/ml for 16 hours
# Procedure: Assay for Transrepression Activity of the Glucocorticoid Agonists
# A549 cells stably transfected with a reporter gene containing the NF-κB responsive elements from the ELAM gene promoter coupled to sPAP (secreted alkaline phosphatase) are treated with test compounds at appropriate doses for 1 hour at 37° C. The cells are then stimulated with tumour necrosis factor (TNF, 10 ng/ml) for 16 hours, at which time the amount of alkaline phosphatase produced is measured by a standard colourimetric assay. Dose response curves were constructed from which EC50 values were estimated.
row,SMILES,pIC50 (transrepression)
1,"CC[C@H]1CC[C@@H](OC(=O)O[C@]2(C(=O)OCF)[C@H](C)C[C@H]3[C@@H]4C[C@H](F)C5=CC(=O)C=C[C@]5(C)[C@@]4(F)[C@@H](O)C[C@@]32C)CC1 (relative stereo) [Example 36, Fluoromethyl(6α,11β,16α,17α)-17-({[(cis-4-ethylcyclohexyl)oxy]carbonyl}oxy)-6,9-difluoro-11-hydroxy-16-methyl-3-oxoandrosta-1,4-diene-17-carboxylate]",> 8.0
2,"CC[C@H]1CC[C@H](OC(=O)O[C@]2(C(=O)OCF)[C@H](C)C[C@H]3[C@@H]4C[C@H](F)C5=CC(=O)C=C[C@]5(C)[C@@]4(F)[C@@H](O)C[C@@]32C)CC1 (relative stereo) [Example 37, Fluoromethyl(6α,11β,16α,17α)-17-({[(trans-4-ethylcyclohexyl)oxy]carbonyl}oxy)-6,9-difluoro-11-hydroxy-16-methyl-3-oxoandrosta-1,4-diene-17-carboxylate]",> 8.0
3,"C[C@@H]1C[C@H]2[C@@H]3C[C@H](F)C4=CC(=O)C=C[C@]4(C)[C@@]3(F)[C@@H](O)C[C@]2(C)[C@@]1(OC(=O)OC(C)(C)C)C(=O)OCF [Example 1, Fluoromethyl(6α,11β,16α,17α)-17-({[(1,1-dimethylethyl)oxy]carbony}oxy)-6,9-difluoro-11-hydroxy-16-methyl-3-oxoandrosta-1,4-diene-17-carboxylate]",> 8.0
4,"CCC(C)(C)OC(=O)O[C@]1(C(=O)OCF)[C@H](C)C[C@H]2[C@@H]3C[C@H](F)C4=CC(=O)C=C[C@]4(C)[C@@]3(F)[C@@H](O)C[C@@]21C [Example 2, Fluoromethyl(6α,11β,16α,17α)-17-({[(1,1-dimethylpropyl)oxy]carbonyl}oxy)-6,9-difluoro-11-hydroxy-16-methyl-3-oxoandrosta-1,4-diene-17-carboxylate]",> 8.0
5,"CC(C)[C@@H]1CC[C@@H](C)C[C@H]1OC(=O)O[C@]1(C(=O)OCF)[C@H](C)C[C@H]2[C@@H]3C[C@H](F)C4=CC(=O)C=C[C@]4(C)[C@@]3(F)[C@@H](O)C[C@@]21C [Example 3, Fluoromethyl(6α,11β,16α,17α)-6,9-difluoro-11-hydroxy-16-methyl-17-[({[(1R,2S,5R)-5-methyl-2-(1-methylethyl)cyclohexyl]oxy}carbonyl)oxy]-3-oxoandrosta-14-diene-17-carboxylate]",> 8.0
6,"CCC(CC)OC(=O)O[C@]1(C(=O)OCF)[C@H](C)C[C@H]2[C@@H]3C[C@H](F)C4=CC(=O)C=C[C@]4(C)[C@@]3(F)[C@@H](O)C[C@@]21C [Example 4, Fluoromethyl(6α,11β,16α,17α)-17-({[(1-ethylpropyl)oxy]carbonyl}oxy)-6,9-difluoro-11-hydroxy-16-methyl-3-oxoandrosta-1,4-diene-17-carboxylate]",> 8.0
7,"CC(C)C(OC(=O)O[C@]1(C(=O)OCF)[C@H](C)C[C@H]2[C@@H]3C[C@H](F)C4=CC(=O)C=C[C@]4(C)[C@@]3(F)[C@@H](O)C[C@@]21C)C(C)C [Example 5, Fluoromethyl(6α,11β,16α,17α)-6,9-difluoro-11-hydroxy-16-methyl-17-[({[2-methyl-1-(1-methylethyl)propyl]oxy}carbonyl)oxy]-3-oxoandrosta-1,4-diene-17-carboxylate]",> 8.0
8,"CCC(CC)COC(=O)O[C@]1(C(=O)OCF)[C@H](C)C[C@H]2[C@@H]3C[C@H](F)C4=CC(=O)C=C[C@]4(C)[C@@]3(F)[C@@H](O)C[C@@]21C [Example 6, Fluoromethyl(6α,11β,16α,17α)-17-({[(2-ethylbutyl)oxy]carbonyl}oxy)-6,9-difluoro-11-hydroxy-16-methyl-3-oxoandrosta-1,4-diene-17-carboxylate]",> 8.0
9,"C[C@@H]1C[C@H]2[C@@H]3C[C@H](F)C4=CC(=O)C=C[C@]4(C)[C@@]3(F)[C@@H](O)C[C@]2(C)[C@@]1(OC(=O)OCC(C)(C)C)C(=O)OCF [Example 7, Fluoromethyl(6α,11β,16α,17α)-17-({[(2,2-dimethylpropyl)oxy]carbonyl}oxy)-6,9-difluoro-11-hydroxy-16-methyl-3-oxoandrosta-1,4-diene-17-carboxylate]",> 8.0
10,"CCC(OC(=O)O[C@]1(C(=O)OCF)[C@H](C)C[C@H]2[C@@H]3C[C@H](F)C4=CC(=O)C=C[C@]4(C)[C@@]3(F)[C@@H](O)C[C@@]21C)C(C)C (stereo partly drawn) [Example 8, Fluoromethyl(6α,11β,16α,17α)-17-({[(1-ethyl-2-methylpropyl)oxy]carbonyl}oxy)-6,9-difluoro-11-hydroxy-16-methyl-3-oxoandrosta-1,4-diene-17-carboxylate]",> 8.0
11,"CC(C)C(C)OC(=O)O[C@]1(C(=O)OCF)[C@H](C)C[C@H]2[C@@H]3C[C@H](F)C4=CC(=O)C=C[C@]4(C)[C@@]3(F)[C@@H](O)C[C@@]21C (stereo partly drawn) [Example 9, Fluoromethyl(6α,11β,16α,17α)-17-({[(1,2-dimethylpropyl)oxy]carbonyl}oxy)-6,9-difluoro-11-hydroxy-16-methyl-3-oxoandrosta-1,4-diene-17-carboxylate]",> 8.0
12,"CC1CCCCC1OC(=O)OC1(C(=O)OCF)C(C)CC2C3CC(F)C4=CC(=O)C=CC4(C)C3(F)C(O)CC21C (stereo not drawn) [Example 10, Fluoromethyl(6α,11β,16α,17α)-6,9-difluoro-11-hydroxy-16-methyl-17-[({[(1SR,2RS)-2-methylcyclohexyl]oxy}carbonyl)oxy]-3-oxoandrosta-1,4-diene-17-carboxylate]",> 8.0
13,"CC(C)C1CCC(OC(=O)O[C@]2(C(=O)OCF)[C@H](C)C[C@H]3[C@@H]4C[C@H](F)C5=CC(=O)C=C[C@]5(C)[C@@]4(F)[C@@H](O)C[C@@]32C)CC1 (stereo partly drawn) [Example 11, Fluoromethyl(6α,11β,16α,17α)-6,9-difluoro-11-hydroxy-16-methyl-17-[({[4-(1-methylethyl)cyclohexyl]oxy}carbonyl)oxy]-3-oxoandrosta-1,4-diene-17-carboxylate]",> 8.0
14,"CC1CC2C3CC(F)C4=CC(=O)C=CC4(C)C3(F)C(O)CC2(C)C1(OC(=O)OC1CC2CCC1C2)C(=O)OCF (stereo not drawn) [Example 12, Fluoromethyl(6α,11β,16α,17α)-17-({[(1RS,2RS,4SR)-bicyclo[2.2.1]hept-2-yloxy]carbonyl}oxy)-6,9-difluoro-11-hydroxy-16-methyl-3-oxoandrosta-1,4-diene-17-carboxylate]",> 8.0
15,"C[C@@H]1C[C@H]2[C@@H]3C[C@H](F)C4=CC(=O)C=C[C@]4(C)[C@@]3(F)[C@@H](O)C[C@]2(C)[C@@]1(OC(=O)OC1CCCCCC1)C(=O)OCF [Example 14, Fluoromethyl(6α,11β,16α,17α)-17-{[(cycloheptyloxy)carbonyl]oxy}-6,9-difluoro-11-hydroxy-16-methyl-3-oxoandrosta-1,4-diene-17-carboxylate]",> 8.0
16,"C[C@@H]1C[C@H]2[C@@H]3C[C@H](F)C4=CC(=O)C=C[C@]4(C)[C@@]3(F)[C@@H](O)C[C@]2(C)[C@@]1(OC(=O)OCC1CCCC1)C(=O)OCF [Example 15, Fluoromethyl(6α,11β,16α,17α)-17-({[(cyclopentylmethyl)oxy]carbonyl}oxy)-6,9-difluoro-11-hydroxy-16-methyl-3-oxoandrosta-1,4-diene-17-carboxylate]",> 8.0
17,"C[C@@H]1C[C@H]2[C@@H]3C[C@H](F)C4=CC(=O)C=C[C@]4(C)[C@@]3(F)[C@@H](O)C[C@]2(C)[C@@]1(OC(=O)OC1CCCCCCC1)C(=O)OCF [Example 16, Fluoromethyl(6α,11β,16α,17α)-17-{[(cyclooctyloxy)carbonyl]oxy}-6,9-difluoro-11-hydroxy-16-methyl-3-oxoandrosta-1,4-diene-17-carboxylate]",> 8.0
18,"C[C@@H]1C[C@H](C)C[C@H](OC(=O)O[C@]2(C(=O)OCF)[C@H](C)C[C@H]3[C@@H]4C[C@H](F)C5=CC(=O)C=C[C@]5(C)[C@@]4(F)[C@@H](O)C[C@@]32C)C1 [Example 17, Fluoromethyl(6α,11β,16α,17α)-17-[({[(1S,3R,5S)-3,5-dimethylcyclohexyl]oxy}carbonyl)oxy]-6,9-difluoro-11-hydroxy-16-methyl-3-oxoandrosta-1,4-diene-17-carboxylate]",> 8.0
